Laboratory results: PubChem BioAssay AID493246 (Drosophila RNAi Screening Center, 2011)
In all, the deposit lists about 21,000 reagents; this is a random part of those that have a named target and a result. Over the whole deposit, 429 (2%) were called active. 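Values are raw and not normalised between plates; calls rest on per-plate z-scores that were not deposited.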 Unmarked entries are inactive. The numbers tell different reagents against one gene apart. Not given: the amount of reagent, the time to read-out.

- Assay: 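Identify essential fly genes by loss of cell viability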 (primary screen)
- System: Drosophila Kc and S2R+ cells
- Knock-down reagent: long dsRNA against Drosophila genes
- Measured: 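Cell number per well after knock-down, printed as raw plate values; calls were based on per-plate z-scores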
- Direction: Kc cell number and S2R+ cell number: higher = more cells remaining
- Rule for the call: 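Active when the per-plate z-score of cell number is 3 or more in the direction of fewer cells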

gene | reagent no. | Kc cell number, rep 1 | Kc cell number, rep 2 | S2R+ cell number, rep 1 | S2R+ cell number, rep 2
GlyRS (Glycyl-tRNA synthetase) | 1 | 1.46e6 | 1.48e6 | 1.21e6 | 1.32e6
CG14767 | 1 | 1.55e6 | 1.58e6 | 1.13e6 | 1.18e6
thoc6 | 1 | 1.45e6 | 1.46e6 | 1.18e6 | 1.18e6
CG6321 | 1 | 1.47e6 | 1.51e6 | 1.24e6 | 1.17e6
Cyt-c-d (Cytochrome c distal) | 1 | 1.48e6 | 1.57e6 | 1.19e6 | 1.33e6
Obp83b (Odorant-binding protein 83b) | 1 | 1.68e6 | 1.77e6 | 1.33e6 | 1.52e6
CG6034 | 1 | 1.41e6 | 1.60e6 | 1.32e6 | 1.39e6
PIP4K (Phosphatidylinositol 5-phosphate 4-kinase) | 1 | 1.47e6 | 1.48e6 | 1.00e6 | 1.10e6
fus (fusilli) | 1 | 1.56e6 | 1.53e6 | 1.12e6 | 1.32e6
fus (fusilli) | 2 | 1.44e6 | 1.55e6 | 1.08e6 | 9.73e5
CG14502 | 1 | 1.32e6 | 1.39e6 | 1.26e6 | 1.25e6
BckdhB (Branched chain keto acid dehydrogenase E1 subunit beta) | 1 | 1.36e6 | 1.44e6 | 1.03e6 | 1.08e6
CecA2 (Cecropin A2) | 1 | 1.44e6 | 1.59e6 | 9.52e5 | 1.14e6
lama (lamina ancestor) | 1 | 1.16e6 | 1.25e6 | 1.39e6 | 1.38e6
CG17378 | 1 | 1.55e6 | 1.35e6 | 1.13e6 | 1.25e6
CG12224 | 1 | 1.87e6 | 1.90e6 | 1.29e6 | 1.38e6
Reg-2 (Rhythmically expressed gene 2) | 1 | 1.26e6 | 1.37e6 | 1.08e6 | 1.04e6
Pif1 (Pif1 DNA helicase) | 1 | 1.19e6 | 1.30e6 | 9.66e5 | 9.82e5
Cyp4p3 (Cytochrome P450 4p3) | 1 | 1.77e6 | 1.92e6 | 1.31e6 | 1.45e6
if (inflated) | 1 | 1.79e6 | 1.85e6 | 1.13e6 | 1.28e6
Vha68-3 (Vacuolar H[+] ATPase 68kD subunit 3) | 1 | 1.61e6 | 1.63e6 | 1.30e6 | 1.39e6
yellow-g2 | 1 | 1.32e6 | 1.36e6 | 1.03e6 | 1.33e6
CG32163 | 1 | 1.23e6 | 1.22e6 | 1.00e6 | 1.11e6
lmd (lame duck) | 1 | 1.47e6 | 1.61e6 | 1.16e6 | 1.19e6
CG14671 | 1 | 1.62e6 | 1.83e6 | 1.23e6 | 1.27e6
CG31431 | 1 | 1.27e6 | 1.29e6 | 1.15e6 | 1.22e6
CG9312 | 1 | 1.53e6 | 1.56e6 | 1.30e6 | 1.31e6

No new results follow: 3 of the entries above.
gene | reagent no. | Kc cell number, rep 1 | Kc cell number, rep 2 | S2R+ cell number, rep 1 | S2R+ cell number, rep 2
CG17378 | 1 | 1.55e6 | 1.35e6 | 1.13e6 | 1.25e6
CG12224 | 1 | 1.87e6 | 1.90e6 | 1.29e6 | 1.38e6
Reg-2 (Rhythmically expressed gene 2) | 1 | 1.26e6 | 1.37e6 | 1.08e6 | 1.04e6

Further entries follow.
gene | reagent no. | Kc cell number, rep 1 | Kc cell number, rep 2 | S2R+ cell number, rep 1 | S2R+ cell number, rep 2
nAChRbeta3 (nicotinic Acetylcholine Receptor beta3) | 1 | 1.19e6 | 1.61e6 | 1.02e6 | 1.09e6
CG32344 | 1 | 1.40e6 | 1.44e6 | 1.06e6 | 1.16e6
Tbcc (Tubulin-binding cofactor C) | 1 | 1.41e6 | 1.50e6 | 1.06e6 | 1.16e6
CG17672 | 1 | 2.64e5 (active) | 6.56e5 | 4.59e5 | 5.78e5
CG17672 | 2 | 1.40e6 | 1.47e6 | 1.37e6 | 1.21e6
Targ1 (Terminal ADP-ribose protein glycohydrolase 1) | 1 | 1.32e6 | 1.23e6 | 1.32e6 | 1.43e6
Gagr (Gag-related) | 1 | 1.59e6 | 1.62e6 | 1.42e6 | 1.49e6
Cyp4e2 (Cytochrome P450 4e2) | 1 | 1.29e6 | 1.39e6 | 1.16e6 | 1.22e6
Rad51D (Rad51 recombinase D) | 1 | 1.54e6 | 1.58e6 | 1.26e6 | 1.32e6
ND-MLRQ (NADH dehydrogenase (ubiquinone) MLRQ subunit) | 1 | 1.56e6 | 1.71e6 | 1.17e6 | 1.33e6
l(1)G0004 (lethal (1) G0004) | 1 | 1.44e6 | 1.52e6 | 1.01e6 | 1.14e6
Dus2 (Dihydrouridine synthase 2) | 1 | 5.40e5 | – | 7.42e5 | –
Muc4B (Mucin 4B) | 1 | 1.55e6 | 1.50e6 | 9.09e5 | 9.74e5
Muc4B (Mucin 4B) | 2 | 1.53e6 | 1.58e6 | 9.26e5 | 1.11e6
CG13670 | 1 | 1.58e6 | 1.53e6 | 1.23e6 | 1.24e6
CG43897 | 1 | 1.53e6 | 1.42e6 | 9.36e5 | 9.84e5
CG43897 | 2 | 1.34e6 | 1.26e6 | 1.28e6 | 1.33e6
CG7328 | 1 | 1.62e6 | 1.69e6 | 1.39e6 | 1.49e6
Toll-7 | 1 | 1.61e6 | 1.60e6 | 1.16e6 | 1.32e6
PICK1 (Protein interacting with C kinase 1) | 1 | 1.70e6 | 1.72e6 | 1.38e6 | 1.56e6
CG1075 (retired record) | 1 | 1.58e6 | 1.90e6 | 1.23e6 | 1.32e6
CG7512 | 1 | 1.54e6 | 1.78e6 | 1.42e6 | 1.54e6
Arl8 (ADP ribosylation factor-like 8) | 1 | 1.62e6 | 1.73e6 | 1.28e6 | 1.39e6
CG31805 | 1 | 1.45e6 | 1.50e6 | 9.15e5 | 1.11e6
scrib (scribble) | 1 | 1.15e6 | 1.46e6 | 1.09e6 | 1.14e6
scrib (scribble) | 2 | 5.73e5 | – | 7.22e5 | –
scrib (scribble) | 3 | 1.55e6 | 1.57e6 | 1.03e6 | 1.18e6
CG34327 | 1 | 1.72e6 | 1.79e6 | 1.10e6 | 1.38e6
CG1239 | 1 | 1.56e6 | 1.65e6 | 1.32e6 | 1.36e6
CG33286 | 1 | 1.39e6 | 1.43e6 | 1.30e6 | 1.41e6
ppk16 (pickpocket 16) | 1 | 1.54e6 | 1.58e6 | 1.23e6 | 1.46e6
Cpr65Ea (Cuticular protein 65Ea) | 1 | 1.33e6 | 1.32e6 | 1.25e6 | 1.24e6
